From the supplement of paper PMC10849652
Some of the results follow.

Sequences of proteins named here, by UniProt entry; tags and fusion partners are left off. A change or cut given only in a name is not applied to a line headed by its entry.
UniProt Q9BUB5: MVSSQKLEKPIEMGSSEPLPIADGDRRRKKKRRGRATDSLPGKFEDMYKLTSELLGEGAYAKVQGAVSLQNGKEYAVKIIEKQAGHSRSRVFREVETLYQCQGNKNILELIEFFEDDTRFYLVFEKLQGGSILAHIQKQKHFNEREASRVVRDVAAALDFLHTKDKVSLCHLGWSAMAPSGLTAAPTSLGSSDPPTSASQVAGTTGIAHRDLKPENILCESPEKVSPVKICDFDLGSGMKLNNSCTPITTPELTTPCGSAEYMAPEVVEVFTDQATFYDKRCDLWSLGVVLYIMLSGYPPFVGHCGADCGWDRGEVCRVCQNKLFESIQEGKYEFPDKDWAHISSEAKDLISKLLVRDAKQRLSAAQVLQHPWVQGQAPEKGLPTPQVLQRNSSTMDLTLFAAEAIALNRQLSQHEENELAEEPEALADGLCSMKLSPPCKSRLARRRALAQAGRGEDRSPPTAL
UniProt Q9NPA3, whole entry, looked up: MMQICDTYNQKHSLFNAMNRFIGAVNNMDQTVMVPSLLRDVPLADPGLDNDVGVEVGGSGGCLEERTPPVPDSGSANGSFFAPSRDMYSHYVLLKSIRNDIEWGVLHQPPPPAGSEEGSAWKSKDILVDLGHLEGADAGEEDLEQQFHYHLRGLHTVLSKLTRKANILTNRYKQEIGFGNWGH
UniProt Q8TDZ2: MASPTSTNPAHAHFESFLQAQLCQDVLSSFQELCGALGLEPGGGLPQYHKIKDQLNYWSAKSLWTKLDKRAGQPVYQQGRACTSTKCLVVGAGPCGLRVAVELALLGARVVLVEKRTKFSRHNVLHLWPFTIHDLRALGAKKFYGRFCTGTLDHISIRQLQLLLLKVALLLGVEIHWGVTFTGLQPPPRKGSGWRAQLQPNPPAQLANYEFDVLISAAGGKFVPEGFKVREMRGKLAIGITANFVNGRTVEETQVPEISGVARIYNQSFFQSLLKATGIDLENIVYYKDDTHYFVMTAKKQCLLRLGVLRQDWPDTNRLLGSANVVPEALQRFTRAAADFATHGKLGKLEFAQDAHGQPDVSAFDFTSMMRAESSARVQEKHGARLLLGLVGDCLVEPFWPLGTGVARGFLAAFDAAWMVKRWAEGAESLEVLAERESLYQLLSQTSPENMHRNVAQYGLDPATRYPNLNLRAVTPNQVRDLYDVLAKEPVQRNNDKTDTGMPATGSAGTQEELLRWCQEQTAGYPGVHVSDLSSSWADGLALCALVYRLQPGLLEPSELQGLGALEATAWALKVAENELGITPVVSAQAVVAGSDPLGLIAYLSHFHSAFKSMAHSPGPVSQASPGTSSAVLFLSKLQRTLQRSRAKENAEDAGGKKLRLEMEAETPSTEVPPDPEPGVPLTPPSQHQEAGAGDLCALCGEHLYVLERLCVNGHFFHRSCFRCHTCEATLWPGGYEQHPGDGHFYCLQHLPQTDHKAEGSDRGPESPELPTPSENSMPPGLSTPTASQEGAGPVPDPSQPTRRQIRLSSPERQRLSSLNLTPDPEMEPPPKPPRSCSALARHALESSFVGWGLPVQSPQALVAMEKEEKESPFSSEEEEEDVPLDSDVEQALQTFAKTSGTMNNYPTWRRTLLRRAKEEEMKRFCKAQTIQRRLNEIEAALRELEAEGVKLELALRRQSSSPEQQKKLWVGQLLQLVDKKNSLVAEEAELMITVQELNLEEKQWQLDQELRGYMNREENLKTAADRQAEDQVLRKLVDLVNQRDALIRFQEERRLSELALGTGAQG
UniProt Q8WV92, whole entry, looked up: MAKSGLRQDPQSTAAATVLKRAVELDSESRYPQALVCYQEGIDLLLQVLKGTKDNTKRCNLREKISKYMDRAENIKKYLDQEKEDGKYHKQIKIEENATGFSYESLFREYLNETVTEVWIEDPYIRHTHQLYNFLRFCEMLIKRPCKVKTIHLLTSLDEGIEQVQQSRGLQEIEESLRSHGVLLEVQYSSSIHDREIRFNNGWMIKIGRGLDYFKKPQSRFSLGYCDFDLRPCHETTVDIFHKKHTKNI
UniProt Q9HCE1: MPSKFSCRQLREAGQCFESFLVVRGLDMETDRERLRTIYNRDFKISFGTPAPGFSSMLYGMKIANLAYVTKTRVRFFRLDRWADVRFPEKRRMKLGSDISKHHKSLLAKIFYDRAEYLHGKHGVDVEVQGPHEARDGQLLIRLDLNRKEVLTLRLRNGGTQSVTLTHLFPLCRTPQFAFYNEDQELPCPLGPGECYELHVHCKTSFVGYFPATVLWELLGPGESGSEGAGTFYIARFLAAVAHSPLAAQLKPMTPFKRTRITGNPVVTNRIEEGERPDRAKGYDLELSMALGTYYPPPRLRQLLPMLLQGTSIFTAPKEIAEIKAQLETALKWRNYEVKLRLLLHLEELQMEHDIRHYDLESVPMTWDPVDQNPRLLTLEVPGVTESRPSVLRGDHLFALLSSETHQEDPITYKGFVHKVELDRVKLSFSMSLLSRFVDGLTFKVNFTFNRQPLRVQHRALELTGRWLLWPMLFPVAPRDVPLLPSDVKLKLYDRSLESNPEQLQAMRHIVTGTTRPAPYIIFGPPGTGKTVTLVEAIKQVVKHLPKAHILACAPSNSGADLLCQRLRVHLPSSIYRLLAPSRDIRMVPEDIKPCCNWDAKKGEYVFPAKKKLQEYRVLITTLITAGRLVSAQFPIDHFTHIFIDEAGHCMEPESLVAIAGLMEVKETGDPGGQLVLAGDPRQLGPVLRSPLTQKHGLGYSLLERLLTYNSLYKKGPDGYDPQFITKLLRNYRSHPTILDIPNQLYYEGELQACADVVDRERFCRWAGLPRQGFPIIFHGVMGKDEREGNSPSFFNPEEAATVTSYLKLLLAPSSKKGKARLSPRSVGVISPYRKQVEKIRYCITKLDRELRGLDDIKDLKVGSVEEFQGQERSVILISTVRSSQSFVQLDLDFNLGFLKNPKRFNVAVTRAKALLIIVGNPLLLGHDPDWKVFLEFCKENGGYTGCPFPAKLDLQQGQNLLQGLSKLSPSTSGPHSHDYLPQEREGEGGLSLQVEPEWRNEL
UniProt Q6WCQ1: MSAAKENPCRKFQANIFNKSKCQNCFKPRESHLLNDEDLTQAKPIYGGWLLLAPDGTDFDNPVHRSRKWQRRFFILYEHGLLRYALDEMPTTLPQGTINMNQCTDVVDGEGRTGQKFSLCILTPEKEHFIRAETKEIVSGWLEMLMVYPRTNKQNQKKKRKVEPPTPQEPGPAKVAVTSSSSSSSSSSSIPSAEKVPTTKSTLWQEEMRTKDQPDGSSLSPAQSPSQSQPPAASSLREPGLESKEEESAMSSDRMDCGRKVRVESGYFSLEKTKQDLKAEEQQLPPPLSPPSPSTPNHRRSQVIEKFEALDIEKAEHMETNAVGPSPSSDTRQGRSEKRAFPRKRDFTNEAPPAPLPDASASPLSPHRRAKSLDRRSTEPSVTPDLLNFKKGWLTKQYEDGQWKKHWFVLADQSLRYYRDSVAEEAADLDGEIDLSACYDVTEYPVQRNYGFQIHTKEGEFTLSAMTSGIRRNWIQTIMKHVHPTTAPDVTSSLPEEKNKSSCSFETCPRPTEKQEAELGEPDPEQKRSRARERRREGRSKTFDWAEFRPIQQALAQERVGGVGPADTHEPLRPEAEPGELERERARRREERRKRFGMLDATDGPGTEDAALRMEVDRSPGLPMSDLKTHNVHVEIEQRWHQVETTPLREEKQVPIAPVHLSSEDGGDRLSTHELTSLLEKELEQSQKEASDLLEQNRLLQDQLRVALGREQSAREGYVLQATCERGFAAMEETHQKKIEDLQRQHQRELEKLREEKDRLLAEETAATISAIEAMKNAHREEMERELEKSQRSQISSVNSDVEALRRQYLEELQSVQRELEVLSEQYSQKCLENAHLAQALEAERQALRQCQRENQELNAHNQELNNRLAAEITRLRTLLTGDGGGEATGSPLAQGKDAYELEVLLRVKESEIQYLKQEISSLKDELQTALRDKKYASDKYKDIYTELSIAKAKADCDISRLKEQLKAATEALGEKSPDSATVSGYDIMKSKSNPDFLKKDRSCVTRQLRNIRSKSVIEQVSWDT
UniProt Q14165: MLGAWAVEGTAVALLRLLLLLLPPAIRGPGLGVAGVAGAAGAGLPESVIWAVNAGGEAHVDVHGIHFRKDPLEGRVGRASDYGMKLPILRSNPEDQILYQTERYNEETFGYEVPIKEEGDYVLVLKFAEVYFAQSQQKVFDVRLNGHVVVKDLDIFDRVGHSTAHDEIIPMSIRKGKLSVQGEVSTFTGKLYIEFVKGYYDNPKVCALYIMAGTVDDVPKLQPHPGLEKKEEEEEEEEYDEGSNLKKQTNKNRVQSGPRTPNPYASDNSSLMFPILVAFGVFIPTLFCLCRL
UniProt Q13201: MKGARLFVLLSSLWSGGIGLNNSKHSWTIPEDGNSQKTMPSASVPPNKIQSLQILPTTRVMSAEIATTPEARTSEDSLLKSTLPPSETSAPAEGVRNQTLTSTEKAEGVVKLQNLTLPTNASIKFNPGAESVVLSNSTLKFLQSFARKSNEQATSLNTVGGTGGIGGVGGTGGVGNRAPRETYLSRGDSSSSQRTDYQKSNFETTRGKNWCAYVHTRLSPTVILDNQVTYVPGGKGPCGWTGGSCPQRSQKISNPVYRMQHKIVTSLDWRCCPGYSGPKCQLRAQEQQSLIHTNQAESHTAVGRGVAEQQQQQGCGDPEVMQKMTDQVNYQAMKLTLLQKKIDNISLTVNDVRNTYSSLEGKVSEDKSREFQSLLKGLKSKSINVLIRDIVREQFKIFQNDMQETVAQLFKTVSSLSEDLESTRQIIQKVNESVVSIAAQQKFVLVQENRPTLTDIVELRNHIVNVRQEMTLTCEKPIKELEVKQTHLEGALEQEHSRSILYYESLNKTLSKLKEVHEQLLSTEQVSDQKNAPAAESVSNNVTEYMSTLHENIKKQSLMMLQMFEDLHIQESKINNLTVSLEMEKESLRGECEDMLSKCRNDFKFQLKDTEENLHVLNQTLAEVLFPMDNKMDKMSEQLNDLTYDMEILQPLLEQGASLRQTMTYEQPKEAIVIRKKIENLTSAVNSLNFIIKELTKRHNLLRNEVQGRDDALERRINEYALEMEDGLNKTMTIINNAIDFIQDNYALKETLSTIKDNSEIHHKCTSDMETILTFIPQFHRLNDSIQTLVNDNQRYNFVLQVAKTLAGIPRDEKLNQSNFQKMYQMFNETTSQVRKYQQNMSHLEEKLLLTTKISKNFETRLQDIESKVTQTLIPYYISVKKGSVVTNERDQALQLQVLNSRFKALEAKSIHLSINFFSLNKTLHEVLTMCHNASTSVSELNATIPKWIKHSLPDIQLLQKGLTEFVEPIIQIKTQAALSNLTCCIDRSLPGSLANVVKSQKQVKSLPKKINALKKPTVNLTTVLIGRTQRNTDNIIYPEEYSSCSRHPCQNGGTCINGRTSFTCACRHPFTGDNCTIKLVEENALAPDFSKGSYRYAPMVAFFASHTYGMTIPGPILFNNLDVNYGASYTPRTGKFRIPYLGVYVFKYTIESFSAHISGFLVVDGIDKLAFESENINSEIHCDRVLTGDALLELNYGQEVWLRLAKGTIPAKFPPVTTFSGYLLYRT
UniProt Q9NQG6: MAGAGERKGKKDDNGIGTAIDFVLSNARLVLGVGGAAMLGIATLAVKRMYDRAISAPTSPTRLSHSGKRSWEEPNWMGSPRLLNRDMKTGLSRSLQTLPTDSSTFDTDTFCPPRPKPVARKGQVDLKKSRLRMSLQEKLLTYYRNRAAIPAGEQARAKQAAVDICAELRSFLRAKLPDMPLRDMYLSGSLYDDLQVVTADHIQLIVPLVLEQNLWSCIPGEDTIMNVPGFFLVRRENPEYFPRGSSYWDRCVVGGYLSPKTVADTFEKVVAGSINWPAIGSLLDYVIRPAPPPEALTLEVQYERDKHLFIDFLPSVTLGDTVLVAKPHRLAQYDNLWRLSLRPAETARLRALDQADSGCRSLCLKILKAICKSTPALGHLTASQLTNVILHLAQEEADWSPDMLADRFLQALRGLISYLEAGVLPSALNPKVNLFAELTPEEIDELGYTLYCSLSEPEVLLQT
UniProt P14174: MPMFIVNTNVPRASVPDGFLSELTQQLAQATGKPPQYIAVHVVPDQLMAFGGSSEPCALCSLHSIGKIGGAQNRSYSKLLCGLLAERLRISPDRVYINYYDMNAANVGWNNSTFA
UniProt Q6NTE8: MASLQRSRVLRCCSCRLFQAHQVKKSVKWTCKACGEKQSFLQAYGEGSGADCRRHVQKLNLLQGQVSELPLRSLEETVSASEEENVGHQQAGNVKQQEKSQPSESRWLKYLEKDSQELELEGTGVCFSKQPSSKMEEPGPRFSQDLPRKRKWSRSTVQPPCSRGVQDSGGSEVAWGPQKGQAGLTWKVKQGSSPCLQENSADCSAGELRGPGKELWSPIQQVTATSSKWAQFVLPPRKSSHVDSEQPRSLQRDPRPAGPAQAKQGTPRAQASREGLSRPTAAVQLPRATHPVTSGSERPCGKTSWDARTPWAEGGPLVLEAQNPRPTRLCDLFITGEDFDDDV

Tests used:
Assay in all cases: log2 fold change, soluble protein after heating vs DMSO (PISA); higher = thermal stabilisation; K562 cells, 10 uM, 30 min; active = over 0.2 and 3.5 SD of the protein, either way, in both replicates (recomputed)
[1] = compound: CC1=C(C=C(C=C1)NC(=O)C2=CC(=CC=C2)C(C)(C)C#N)NC3=CC4=C(C=C3)N=CN(C4=O)C
Outline: (§1)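 K562 cells at 2×10^6 cells/mL were exposed to 10 μM compound for 30 min, then aliquots were heated for 3 min across 48°C-58°C, pooled, and extracted in PBS containing 0.5% NP-40 at 4°C. The supernatant after 21,000xg for 90 min was taken as soluble protein and measured by TMTpro 16plex LC-MS/MS with channel sums equalised. Thermal stability is reported relative to control samples, with values from duplicates. Fold changes are given on a log2 scale.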

[2] = compound: CC1=C(C=C(C=C1)NC(=O)C2=CC(=CC=C2)N(C)C)NC(=O)C3=CC=C(C=C3)O
Outline: as §1

[3] = compound: CC1=CC=C(C=C1)SC2=C3C=C(SC3=CN=C2)C(=O)N
Outline: as §1

[4] = compound: CC1=NC(=CC=C1)C2=C(N=C(N2)C(C)(C)C)C3=CC4=NC=CN=C4C=C3
Outline: as §1

Nexturastat A = compound: CCCCN(Cc1ccc(C(=O)NO)cc1)C(=O)Nc1ccccc1 [Nexturastat A]
Outline: as §1

vemurafenib = compound: CCCS(=O)(=O)Nc1ccc(F)c(C(=O)c2c[nH]c3ncc(-c4ccc(Cl)cc4)cc23)c1F [vemurafenib]
Outline: as §1

[5] = compound: CCCS(=O)(=O)Nc1ccc(F)c(C(=O)c2c[nH]c3ncc(Cl)cc23)c1F
Outline: as §1

[6] = compound: CCCc1cc(C)[nH]c(=O)c1CNC(=O)c1cc(-c2ccnc(N3CCN(C)CC3)c2)cc2c1cnn2C(C)C
Outline: as §1

givinostat = compound: CCN(CC)Cc1ccc2cc(COC(=O)Nc3ccc(C(=O)NO)cc3)ccc2c1 [givinostat]
Outline: as §1

barasertib = compound: CCN(CCCOc1ccc2c(Nc3cc(CC(=O)Nc4cccc(F)c4)[nH]n3)ncnc2c1)CCOP(=O)(O)O [barasertib]
Outline: as §1

Measured: log2 fold change

MNAT1 (UniProt P51948)
inactive: [1] 0.004 | [2] -0.006 | [3] 0.001 | [4] 0.001 | Nexturastat A 0.043 | vemurafenib -0.006 | [5] 0.039 | [6] -0.037 | givinostat 0.069 | barasertib -0.003

MRPL19 (UniProt P49406)
inactive: [1] 0.106 | [2] -0.032 | [3] -0.049 | [4] -0.034 | Nexturastat A 0.169 | vemurafenib -0.073 | [5] -0.033 | [6] 0.071 | givinostat -0.06 | barasertib -0.085

MKNK1 (UniProt Q9BUB5)
inactive: [1] -0.008 | [2] -0.051 | [3] 0.03 | [4] 0.115 | Nexturastat A -0.094 | vemurafenib 0.021 | [5] 0.035 | [6] 0.022 | givinostat 0.012 | barasertib 0.033

MRPL34 (UniProt Q9BQ48)
inactive: [1] -0.022 | [2] -0.01 | [3] 0.019 | [4] -0.052 | Nexturastat A 0.259 | vemurafenib -0.062 | [5] 0.051 | [6] 0.066 | givinostat -0.021 | barasertib 0.022

MID1IP1 (UniProt Q9NPA3)
inactive: [1] 0.064 | [2] -0.121 | [3] -0.012 | [4] -0.189 | Nexturastat A -0.103 | vemurafenib 0.15 | [5] -0.027 | [6] 0.181 | givinostat 0.025 | barasertib 0.038

Random excerpt: 2 entries already listed.
MRPL19 (UniProt P49406)
inactive: [1] 0.106 | [2] -0.032 | [3] -0.049 | [4] -0.034 | Nexturastat A 0.169 | vemurafenib -0.073 | [5] -0.033 | [6] 0.071 | givinostat -0.06 | barasertib -0.085

MID1IP1 (UniProt Q9NPA3)
inactive: [1] 0.064 | [2] -0.121 | [3] -0.012 | [4] -0.189 | Nexturastat A -0.103 | vemurafenib 0.15 | [5] -0.027 | [6] 0.181 | givinostat 0.025 | barasertib 0.038

The list goes on.

MICAL1 isoform 4 (UniProt Q8TDZ2)
inactive: [1] 0.1 | [2] -0.096 | [3] 0.021 | [4] 0.116 | Nexturastat A 0.2 | vemurafenib 0.012 | [5] 0.136 | [6] 0.11 | givinostat 0.186

MITD1 (UniProt Q8WV92)
inactive: [1] -0.124 | [2] 0.072 | [3] -0.043 | [4] -0.043 | Nexturastat A -0.026 | vemurafenib 0.069 | [5] 0 | [6] -0.093 | givinostat -0.047 | barasertib 0.042

MOV10 (UniProt Q9HCE1)
inactive: [1] 0.044 | [2] 0.017 | [3] -0.055 | [4] -0.067 | Nexturastat A 0.221 | vemurafenib -0.027 | [5] -0.048 | [6] 0.054 | givinostat -0.006 | barasertib -0.05

MRPL43 isoform 4 (UniProt Q8N983)
inactive: [1] 0.116 | [2] -0.04 | [3] -0.052 | [4] -0.068 | Nexturastat A 0.129 | vemurafenib -0.108 | [5] -0.073 | [6] 0.008 | givinostat 0.061 | barasertib -0.004

MMUT (UniProt P22033)
inactive: [1] 0.025 | [2] -0.015 | [3] 0.003 | [4] 0.019 | Nexturastat A -0.093 | vemurafenib 0.024 | [5] 0 | [6] -0.038 | givinostat -0.014 | barasertib 0.032

MPRIP isoform 2 (UniProt Q6WCQ1)
inactive: [1] -0.026 | [2] -0.017 | [3] 0.042 | [4] -0.279 | Nexturastat A 0.178 | vemurafenib -0.032 | [5] 0.079 | [6] -0.259 | givinostat -0.014 | barasertib 0.149

MLEC (UniProt Q14165)
inactive: [1] 0 | [2] -0.001 | [3] -0.03 | [4] -0.026 | Nexturastat A 0.031 | vemurafenib 0 | [5] -0.017 | [6] -0.07 | givinostat 0.003 | barasertib -0.019

MICALL2 (UniProt Q8IY33)
inactive: [1] 0.033 | [2] -0.052 | [3] 0.051 | [4] -0.065 | Nexturastat A -0.027 | vemurafenib 0.107 | [5] 0.018 | [6] 0.039 | givinostat 0.042 | barasertib 0.052

MRPL11 (UniProt Q9Y3B7)
inactive: [1] 0.064 | [2] -0.04 | [3] -0.068 | [4] -0.031 | Nexturastat A 0.193 | vemurafenib -0.033 | [5] -0.001 | [6] 0.065 | givinostat 0.056 | barasertib -0.046

MLXIP (UniProt Q9HAP2)
inactive: [1] 0.017 | [2] -0.044 | [3] 0.108 | [4] 0.061 | Nexturastat A -0.066 | vemurafenib 0.085 | [5] 0.094 | [6] 0.154 | givinostat -0.171 | barasertib -0.042

MMRN1 (UniProt Q13201)
inactive: [1] -0.008 | [2] -0.003

MLYCD (UniProt O95822)
inactive: [1] 0.06 | [2] 0.009 | [3] 0.018 | [4] 0.015 | Nexturastat A -0.006 | vemurafenib 0.03 | [5] 0.027 | [6] 0.08 | givinostat 0.005 | barasertib 0.052

MPHOSPH8 isoform 2 (UniProt Q99549)
inactive: [1] -0.159 | [2] 0.179 | [3] -0.159 | [4] -0.022 | Nexturastat A -0.013 | vemurafenib -0.02 | [5] -0.1 | [6] -0.002

MIEF1 (UniProt Q9NQG6)
inactive: [1] 0.054 | [2] 0.009 | [3] 0.023 | [4] 0.13 | Nexturastat A -0.067 | vemurafenib -0.02 | [5] 0.019 | [6] 0.008 | givinostat -0.044 | barasertib 0.015

MRPL38 (UniProt Q96DV4)
inactive: [1] 0.085 | [2] -0.042 | [3] -0.073 | [4] -0.007 | Nexturastat A 0.126 | vemurafenib -0.073 | [5] -0.052 | [6] 0.065 | givinostat 0.038 | barasertib -0.029

MRPL1 (UniProt Q9BYD6)
inactive: [1] 0.02 | [2] 0.019 | [3] -0.005 | [4] -0.016 | Nexturastat A 0.24 | vemurafenib -0.037 | [5] -0.014 | [6] 0.043 | givinostat 0.046 | barasertib 0.009

MIF4GD isoform 3 (UniProt A9UHW6)
inactive: [1] 0.002 | [2] -0.065 | [3] 0.053 | [4] -0.006 | Nexturastat A -0.082 | vemurafenib 0.08 | [5] -0.034 | [6] -0.034 | givinostat -0.007 | barasertib 0.074

MICALL1 (UniProt Q8N3F8)
inactive: [1] -0.04 | [2] -0.009 | [3] -0.042 | [4] -0.069 | Nexturastat A -0.015 | vemurafenib 0 | [5] -0.109 | [6] 0.194 | givinostat 0.063

MOB4 (UniProt Q9Y3A3)
inactive: [1] 0.041 | [2] -0.023 | [3] 0.032 | [4] 0.042 | Nexturastat A -0.04 | vemurafenib -0.028 | [5] 0.031 | [6] -0.009 | givinostat -0.058 | barasertib 0.03

MRPL4 (UniProt Q9BYD3)
inactive: [1] 0.069 | [2] -0.044 | [3] 0.002 | [4] -0.06 | Nexturastat A 0.096 | vemurafenib -0.082 | [5] -0.021 | [6] 0.012 | givinostat -0.099 | barasertib -0.136

MKI67 (UniProt P46013)
inactive: [1] -0.041 | [2] -0.016 | [3] -0.025 | [4] -0.016 | Nexturastat A 0.154 | vemurafenib -0.067 | [5] 0.034 | [6] -0.028 | givinostat 0.09 | barasertib 0.011

MIF (UniProt P14174)
inactive: [1] 0.056 | [2] -0.014 | [3] 0.056 | [4] 0.098 | Nexturastat A -0.29 | vemurafenib -0.009 | [5] -0.047 | [6] -0.076 | givinostat -0.113 | barasertib -0.009

MRNIP (UniProt Q6NTE8)
inactive: [1] 0.107 | [2] 0.031 | [3] -0.003 | [4] 0.046 | Nexturastat A -0.023 | vemurafenib 0.159 | [5] -0.01 | [6] 0.004 | givinostat 0.265

MINK1 (UniProt Q8N4C8)
inactive: [1] -0.04 | [2] 0.038 | [3] -0.003 | [4] 0.029 | Nexturastat A -0.007 | vemurafenib -0.004 | [5] 0.024 | [6] 0.003 | givinostat -0.007 | barasertib -0.016

MICU2 (UniProt Q8IYU8)
inactive: [1] 0.022 | [2] 0.067 | [3] 0.091 | [4] 0.05 | Nexturastat A 0.198 | vemurafenib 0.053 | [5] 0.183 | [6] 0.042 | givinostat -0.009 | barasertib 0.079

MRPL27 (UniProt Q9P0M9)
inactive: [1] 0.121 | [2] -0.088 | [3] -0.064 | [4] -0.045 | Nexturastat A 0.179 | vemurafenib -0.142 | [5] 0.022 | [6] 0.218 | givinostat -0.029 | barasertib -0.125
